Test results published in the supplement of paper PMC8728848.
The list shows a part of the results.

Tests used:
Assay in all cases: glycan array binding signal (z-score within array); higher = stronger binding
Conditions in all cases: glycan notation: IUPAC condensed, linker removed
[1] = molecular target: Gal(a1-3)GalNAc
In short: (§1)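 Arrays were curated from the Consortium for Functional Glycomics database, 3228 in total, and kept only where the protein sequence was available. Binding is expressed as a within-array Z-score. This score was averaged across arrays of the same protein sequence at different concentrations or buffers and across linkers, and negative values can be read as non-binding.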

[2] = molecular target: Gal(a1-3)[Gal(a1-4)]Gal(b1-4)GlcNAc
In short: as §1

[3] = molecular target: Gal(a1-4)Gal(b1-3)GlcNAc(b1-2)Man(a1-3)[Gal(a1-4)Gal(b1-3)GlcNAc(b1-2)Man(a1-6)]Man(b1-4)GlcNAc(b1-4)GlcNAc
In short: as §1

[4] = molecular target: Gal(a1-4)Gal(b1-4)Glc
In short: as §1

[5] = molecular target: Gal(a1-4)Gal(b1-4)GlcNAc
In short: as §1

[6] = molecular target: Gal(a1-4)Gal(b1-4)GlcNAc(b1-2)Man(a1-3)[Gal(a1-4)Gal(b1-4)GlcNAc(b1-2)Man(a1-6)]Man(b1-4)GlcNAc(b1-4)GlcNAc
In short: as §1

[7] = molecular target: Gal(a1-4)Gal(b1-4)GlcNAc(b1-3)Gal(b1-4)Glc
In short: as §1

[8] = molecular target: Gal(a1-4)GlcNAc
In short: as §1

[9] = molecular target: Gal(a1-6)Glc
In short: as §1

[10] = molecular target: Gal(b1-2)Gal
In short: as §1

[11] = molecular target: Gal(b1-3)Gal
In short: as §1

[12] = molecular target: Gal(b1-3)Gal(b1-4)GlcNAc
In short: as §1

[13] = molecular target: Gal(b1-3)GalNAc
In short: as §1

[14] = molecular target: Gal(b1-3)GalNAc(a1-3)[Fuc(a1-2)]Gal(b1-4)Glc
In short: as §1

[15] = molecular target: Gal(b1-3)GalNAc(a1-3)[Fuc(a1-2)]Gal(b1-4)GlcNAc
In short: as §1

[16] = molecular target: Gal(b1-3)GalNAc(b1-3)Gal
In short: as §1

[17] = molecular target: Gal(b1-3)GalNAc(b1-3)Gal(a1-4)Gal(b1-4)Glc
In short: as §1

[18] = molecular target: Gal(b1-3)GalNAc(b1-4)Gal(b1-4)Glc
In short: as §1

[19] = molecular target: Gal(b1-3)GalNAc(b1-4)[Neu5Ac(a2-3)]Gal(b1-4)Glc
In short: as §1

[20] = molecular target: Gal(b1-3)GlcNAc
In short: as §1

[21] = molecular target: Gal(b1-3)GlcNAc(a1-3)Gal(b1-4)GlcNAc
In short: as §1

[22] = molecular target: Gal(b1-3)GlcNAc(a1-6)Gal(b1-4)GlcNAc
In short: as §1

[23] = molecular target: Gal(b1-3)GlcNAc(b1-2)Man
In short: as §1

[24] = molecular target: Gal(b1-3)GlcNAc(b1-2)Man(a1-3)[Gal(b1-3)GlcNAc(b1-2)Man(a1-6)]Man(b1-4)GlcNAc(b1-4)GlcNAc
In short: as §1

[25] = molecular target: Gal(b1-3)GlcNAc(b1-2)Man(a1-3)[Gal(b1-3)GlcNAc(b1-2)Man(a1-6)]Man(b1-4)GlcNAc(b1-4)[Fuc(a1-6)]GlcNAc
In short: as §1

[26] = molecular target: Gal(b1-3)GlcNAc(b1-2)Man(a1-3)[GlcNAc(b1-4)][Gal(b1-3)GlcNAc(b1-2)Man(a1-6)]Man(b1-4)GlcNAc(b1-4)GlcNAc
In short: as §1

[27] = molecular target: Gal(b1-3)GlcNAc(b1-2)[Gal(b1-3)GlcNAc(b1-6)]Man(a1-6)[Gal(b1-3)GlcNAc(b1-2)Man(a1-3)]Man(b1-4)GlcNAc(b1-4)GlcNAc
In short: as §1

[28] = molecular target: Gal(b1-3)GlcNAc(b1-3)Gal(b1-3)GlcNAc
In short: as §1

[29] = molecular target: Gal(b1-3)GlcNAc(b1-3)Gal(b1-4)Glc
In short: as §1

[30] = molecular target: Gal(b1-3)GlcNAc(b1-3)Gal(b1-4)GlcNAc
In short: as §1

[31] = molecular target: Gal(b1-3)GlcNAc(b1-3)Gal(b1-4)GlcNAc(b1-2)Man(a1-3)[Gal(b1-3)GlcNAc(b1-3)Gal(b1-4)GlcNAc(b1-2)Man(a1-6)]Man(b1-4)GlcNAc(b1-4)GlcNAc
In short: as §1

[32] = molecular target: Gal(b1-3)GlcNAc(b1-3)Gal(b1-4)GlcNAc(b1-2)[Gal(b1-3)GlcNAc(b1-3)Gal(b1-4)GlcNAc(b1-6)]Man(a1-6)[Gal(b1-3)GlcNAc(b1-3)Gal(b1-4)GlcNAc(b1-2)Man(a1-3)]Man(b1-4)GlcNAc(b1-4)[Fuc(a1-6)]GlcNAc
In short: as §1

[33] = molecular target: Gal(b1-3)GlcNAc(b1-3)Gal(b1-4)GlcNAc(b1-3)Gal(b1-4)GlcNAc(b1-2)[Gal(b1-3)GlcNAc(b1-3)Gal(b1-4)GlcNAc(b1-3)Gal(b1-4)GlcNAc(b1-6)]Man(a1-6)[Gal(b1-3)GlcNAc(b1-3)Gal(b1-4)GlcNAc(b1-3)Gal(b1-4)GlcNAc(b1-2)Man(a1-3)]Man(b1-4)GlcNAc(b1-4)[Fuc(a1-6)]GlcNAc
In short: as §1

[34] = molecular target: Gal(b1-3)GlcNAc(b1-3)Gal(b1-4)GlcNAc(b1-6)[Gal(b1-3)GlcNAc(b1-3)]Gal(b1-4)Glc
In short: as §1

[35] = molecular target: Gal(b1-3)GlcNAc(b1-3)Gal(b1-4)[Fuc(a1-3)]GlcNAc
In short: as §1

[36] = molecular target: Gal(b1-3)GlcNAc(b1-3)Gal(b1-4)[Fuc(a1-3)]GlcNAc(b1-6)[Gal(b1-3)GlcNAc(b1-3)]Gal(b1-4)Glc
In short: as §1

[37] = molecular target: Gal(b1-3)GlcNAc(b1-3)GalNAc
In short: as §1

[38] = molecular target: Gal(b1-3)GlcNAc(b1-6)Gal(b1-4)GlcNAc
In short: as §1

B1: SP15308C-bot-338-23-338 (Bacteroides ovatus) (protein)
chain: DEWTDEQFKQLISFKTQPGGWGVTDVHVRYANSAKYTYNLPVLVSGSTDNTDDRLVSFSLRDDTLDILNFEKFGNRPELYFRELPQKYYSFPKELTIPAGQSHALLPIEFSLDGLDDSQKWALPLKVCEDANGTYAVNPRKYYRTAVLRPILFNEFSGRFSGSSLLGTMAGESDIKFSSTEIKLNVVTDSIVFFYAGQRTEDYEDRINYKVFLQFTGDKVDSKKDLYKMKIWAENEKLKFNSYSTPTYKVSSEMDATKTYLKHTYIVISDIDFDFVDYTSVPNYEIEYNMKGGLSVSRDLDTRKPDEDQGSDSKWW
[1]
  glycan array binding signal (z-score): -0.116
[2]
  glycan array binding signal (z-score): 0.116
[3]
  glycan array binding signal (z-score): 0.41
[4]
  glycan array binding signal (z-score): -0.364
[5]
  glycan array binding signal (z-score): 0.064
[6]
  glycan array binding signal (z-score): 1.31
[7]
  glycan array binding signal (z-score): -0.013
[8]
  glycan array binding signal (z-score): -0.707
[9]
  glycan array binding signal (z-score): -0.447
[10]
  glycan array binding signal (z-score): 0.547
[11]
  glycan array binding signal (z-score): -0.335
[12]
  glycan array binding signal (z-score): 0.073
[13]
  glycan array binding signal (z-score): -0.422
[14]
  glycan array binding signal (z-score): 0.351
[15]
  glycan array binding signal (z-score): -0.728
[16]
  glycan array binding signal (z-score): -0.623
[17]
  glycan array binding signal (z-score): 0.583
[18]
  glycan array binding signal (z-score): -0.1
[19]
  glycan array binding signal (z-score): 0.31
[20]
  glycan array binding signal (z-score): -0.245
[21]
  glycan array binding signal (z-score): -0.096
[22]
  glycan array binding signal (z-score): 0.802
[23]
  glycan array binding signal (z-score): 0.037
[24]
  glycan array binding signal (z-score): 0.401
[25]
  glycan array binding signal (z-score): -0.023
[26]
  glycan array binding signal (z-score): 1.84
[27]
  glycan array binding signal (z-score): 0.441
[28]
  glycan array binding signal (z-score): -0.548
[29]
  glycan array binding signal (z-score): -0.696
[30]
  glycan array binding signal (z-score): 0.169
[31]
  glycan array binding signal (z-score): 0.936
[32]
  glycan array binding signal (z-score): -0.208
[33]
  glycan array binding signal (z-score): 3.59
[34]
  glycan array binding signal (z-score): -0.365
[35]
  glycan array binding signal (z-score): -0.366
[36]
  glycan array binding signal (z-score): -0.356
[37]
  glycan array binding signal (z-score): 0.7
[38]
  glycan array binding signal (z-score): -0.411
